In patent US20060172373:

What was measured:
[1] = target: Tn3 resolvase wild type (Escherichia coli) (UniProt P0ADI2); experiment: binding assay; conditions: CITED binds site I but no recombination of I x I without acc; protein in cells
[2] = target: Tn3 resolvase M G101S,D102Y,M103I,Q105L (Escherichia coli) (UniProt P0ADI2); experiment: activity assay; conditions: in vitro recombination of supercoiled pTet(I x I); also active in E. coli; purified recombinant protein
[3] = target: Tn3 resolvase NM R2A,E56K,G101S,D102Y,M103I,Q105L (Escherichia coli) (UniProt P0ADI2); experiment: activity assay; conditions: in vitro, about half of pTet(I x I) recombined in 4 min; more active than M; purified recombinant protein

## CGTTCGAAATATTATAAATTATCAGACA (double strand) [res site I (I x I substrate)]
[1]
  binding result: binds
[2]
  activity on this sequence: active
[3]
  activity on this sequence: active

The exact form of at least one protein or probe is not confirmed. For part of these data: At least one result comes from cells or an extract, where the contact may be indirect.
